Test results as given in the supplement of paper PMC12024529.
Structures can show the parent of a compound that is named as a salt. Some of the results follow. Plates or batches differ in their baseline, so values are only roughly comparable.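 Wild-type or misfolding-prone missense mutant B-domain-deleted factor VIII, fused to Gaussia luciferase, is stably expressed in HEK293 lines. Each score is (mean triplicate-well luminescence minus DMSO mean) divided by DMSO standard deviation. Hits score at least 2; lower scores could stem from decreased secretion or poorer cell viability.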

Test system: HEK293 p.N1941S BDD-FVIII-Gluc
Experiment: secreted FVIII-Gluc luciferase Z-score vs DMSO control; higher = more FVIII-Gluc secretion
Conditions: 5 µM; 24 h

Secreted FVIII-Gluc luciferase Z-score, inactive:
O=S(=O)(O)Oc1ccc(C(c2ccc(OS(=O)(=O)O)cc2)c2ccccn2)cc1 [Sodium Picosulfate] -0.389, O=C(O)c1cc(-c2ccccc2)nc2ccccc12 [Cinchophen] 0.664, c1ccc(CN(CC2=NCCN2)c2ccccc2)cc1 [Antazoline HCl] 0.457, OC[C@H]1O[C@H](O[C@]2(CCl)O[C@H](CCl)[C@@H](O)[C@@H]2O)[C@H](O)[C@@H](O)[C@H]1Cl [Sucralose] -0.495, CS(=O)(=O)c1ccc([C@@H](O)[C@@H](CO)NC(=O)C(Cl)Cl)cc1 [Thiamphenicol (Thiophenicol)] -0.0743, CCCC(=O)Nc1ccc(OCC(O)CNC(C)C)c(C(C)=O)c1 (stereo not given) [Acebutolol HCl] -0.0545, CS(=O)(=O)CCNCc1ccc(-c2ccc3ncnc(Nc4ccc(OCc5cccc(F)c5)c(Cl)c4)c3c2)o1 [Lapatinib Ditosylate (Tykerb)] -5.67, COc1c(N2C[C@@H]3CCCN[C@@H]3C2)c(F)cc2c(=O)c(C(=O)O)cn(C3CC3)c12 [Moxifloxacin hydrochloride] 0.404, CNCCCC12CCC(c3ccccc31)c1ccccc12 [Maprotiline hydrochloride] -6.33, COC(=O)C1=C(C)NC(C)=C(C(=O)OC2CCCN(Cc3ccccc3)C2)C1c1cccc([N+](=O)[O-])c1 (stereo not given) [Benidipine hydrochloride] -0.597
